# Measured values published in patent US20260144740A1, “COSMETIC ACTIVE INGREDIENT DERIVED FROM A NON-VOLATILE FRACTION OF CANARIUM EXUDATE AND USES THEREOF” (FLORE SCOLA, priority 2022, published 2026).
# Test system: PCi-SEB human sebocytes
# Test: Cellular proteins (Pierce BCA test) in sebocyte cultures
# Format: cell-based
# Details: 20 μM, positive control
smiles,measurement,value
"CCCCCCCCCCCCCCOc1ccc(C(=O)O)o1 [TOFA, 5-(tetradecyloxy)-2-furoic acid]","Protein, Mean",239.99 μg/well
